Test results reported in publication doi:10.1101/2025.10.24.684405.
Positions count from the first letter of the chain named. In names and notes the source's numbering stands. No constants are given. Whether binding was seen depends on the method and setting. For part of these data: In cells and extracts the contact can be indirect. Some results given as binding are weak or reduced against the parent protein; the word gives no strength. Tags and fused reporters may be left off the sequences shown.

T1: human CTU1 (cytosolic thiouridylase 1), 6xHis and Twin-Strep tagged (human) (UniProt Q7Z7A3)
T1 sequence: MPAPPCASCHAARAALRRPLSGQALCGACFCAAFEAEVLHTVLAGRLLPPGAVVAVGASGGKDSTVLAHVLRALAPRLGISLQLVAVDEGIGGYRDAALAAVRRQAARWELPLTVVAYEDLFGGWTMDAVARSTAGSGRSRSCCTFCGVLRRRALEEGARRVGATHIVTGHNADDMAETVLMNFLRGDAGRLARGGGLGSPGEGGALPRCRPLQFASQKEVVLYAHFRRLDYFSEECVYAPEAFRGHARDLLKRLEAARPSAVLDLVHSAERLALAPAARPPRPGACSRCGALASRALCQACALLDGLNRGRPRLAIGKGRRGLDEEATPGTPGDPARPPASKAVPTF

B1: human CTU2 (cytosolic thiouridylase 2), wildtype, 6xHis tagged (protein, UniProt Q2VPK5 1-515)
chain: MCQVGEDYGEPAPEEPPPAPRPSREQKCVKCKEAQPVVVIRAGDAFCRDCFKAFYVHKFRAMLGKNRLIFPGEKVLLAWSGGPSSSSMVWQVLEGLSQDSAKRLRFVAGVIFVDEGAACGQSLEERSKTLAEVKPILQATGFPWHVVALEEVFSLPPSVLWCSAQELVGSEGAYKAAVDSFLQQQHVLGAGGGPGPTQGEEQPPQPPLDPQNLARPPAPAQTEALSQLFCSVRTLTAKEELLQTLRTHLILHMARAHGYSKVMTGDSCTRLAIKLMTNLALGRGAFLAWDTGFSDERHGDVVVVRPMRDHTLKEVAFYNRLFSVPSVFTPAVDTKAPEKASIHRLMEAFILRLQTQFPSTVSTVYRTSEKLVKGPRDGPAAGDSGPRCLLCMCALDVDAADSATAFGAQTSSRLSQMQSPIPLTETRTPPGPCCSPGVGWAQRCGQGACRREDPQACIEEQLCYSCRVNMKDLPSLDPLPPYILAEAQLRTQRAWGLQEIRDCLIEDSDDEAGQS
B2: human CTU2 H57A/R60A double mutant, 6xHis tagged (protein, UniProt Q2VPK5 1-515)
chain: B1 chain with H57A, R60A

How the values were obtained:
[1] = biological target: T1, human CTU1 (cytosolic thiouridylase 1), 6xHis and Twin-Strep tagged (human); test: pull-down
[2] = biological target: T1, human CTU1 (cytosolic thiouridylase 1), 6xHis and Twin-Strep tagged (human); test: SEC

Binder | binding [1] | binding [2]
B1 | binds | binds
B2 | – | binds
